In this test the target is SNAMA (D. melanogaster (endogenous in 0-6 h embryos)). Put plainly: affinity purification with mass spectrometry; co-immunoprecipitation from 1 mg crude extract of 0-6 h embryos with 15 ug chicken anti-SNAMA DCM antibody, captured on chicken IgY precipitating resin; SDS-PAGE bands absent from the control with pre-adsorbed pre-immune serum identified by LC-MS/MS.

No constants are given. Whether binding was seen depends on the method and setting. Binding seen in cells or lysates may run through a third protein. Here binding means that the protein was enriched with, or labelled near, the bait; the list need not be complete.

B1: DNA replication-related element factor (DREF) (protein, UniProt Q94883 1-709)
chain: MSEGVPASPVAIGELKYEDVSQLNFSKLYSPKMKSVYWRYFGFPSNDNNEVITKQNVVCIKCHKVLTNHGNTTNLRAHLQHRHKDLFKELCQEHDIHVPPRKTPRNVSHPPLSKRNVSSRRVKLEFINNRNHDNASDDELDEAAVATAAMQAEEDASSQTMLYETMVPFTYDEAENLVEEEERLVMEPKYGRKRKVATPSSALMHGRVIKHEEGGYAAVANIANLAEALTDIVIKDLRNVDSLYDAGFGEFLRQVLGNSAAMPEPHKIDSLINEMHASKFLEIGEITRDFTSEKPFSLAFEMWVNVEQRRFLSIFHHFLDEETHSVRGMLYATVEYNDYIVFDDLLTDFYLANCTLAIINYDEEEDLLHTYLREKNIPISLCYVSVIDKCLRRVFEIEEVATLLEQVKDLMQRHSTEIASKVSEVPMPTYNEHFPWTLYETLKFFAESISWSEDMDHLVISAKTVTEALSALVIALDTLRGEDIPLCSMLSPITSKILIKKLGIAEQDDPLMMNLKRTISSVLQAHVISNDNLTAAALLDPRFHRLTTIDNLERTVRMLTHKYNINFGGVGEGESNEVAATSSVVAIKSEPRVVDGSAPKKLGLKLLFDSNEIPNPPKRDADSSVESDLKRYRNEVVVQLDESPIEWWLKMGHIYGTLRDLASLYHSVPGVVTLSFKKALRDQIYDFNKRFMLTGSHIDAILFLHHHNN
As for B1, the binding entry is “binds”.

B2: Glycogen phosphorylase (protein, UniProt Q9XTL9 1-844)
chain: MSKPQSDADRRKQISVRGIAEVGNVTEVKKNFNRHLHYTLVKDRNVSTLRDYYFALANTVKDNMVGRWIRTQQHYYEKDPKRVYYLSLEYYMGRSLTNTMINLGIQSECEEAMYQLGLDIENLEEMEEDAGLGNGGLGRLAACFLDSMATLGLAAYGYGIRYEYGIFAQKIKNGEQVEEPDDWLRYGNPWEKARPEFMLPVNFYGRVIDTPEGKKWVDTQRVFAMPYDNPIPGYNNNHVNTLRLWSAKSPIDFNLKFFNDGDYIQAVLDRNLAENISRVLYPNDNFFEGKELRLKQEYFMCAATLQDIIRRYKASKFGSREAVRNTFDHFPDKVAIQLNDTHPSLAIPELMRILVDEEHLTWEKAWDITVRSCAYTNHTVLPEALERWPVSLLESILPRHLQIIYHINFLHMENVKKKFPDDLDRMRRMSMVEEDGEKRINMAHLSIVGSHAVNGVAAIHSQILKDSLFHDFYEMEPQKFQNKTNGITPRRWLLLCNPGLSDLIAEKIGDEWPVHLDQLVALKKWAKDPNFQRNVARVKQENKLKLAAILEKDYGVKINPSSMFDIQVKRIHEYKRQLLNCLHIITLYNRIKKDPTANFTPRTIMIGGKAAPGYYVAKQIIKLICAVGNVVNNDPIVGDKLKVIFLENYRVTLAEKIMPAADLSEQISTAGTEASGTGNMKFQLNGALTIGTLDGANVEMAEEMGLDNIFIFGMTVDEVEALKKKGYNAYDYYNANPEVKQVIDQIQGGFFSPGNPNEFKNIADILLKYDHYYLLADYDAYIKAQDLVSKTYQNQAKWLEMSINNIASSGKFSSDRTIAEYAREIWGVEPTWEKLPAPEDQPQN
For B2, the binding result is listed as “binds”.

These data come from PMC4463644.
